This assay has as its target GFP tagged TRIM25 (human (cDNA from HEK293T)) (UniProt Q14258). The assay can be described thus: co-IP.

Chains of the proteins cited; added tags and fusions are not shown.
UniProt Q14258: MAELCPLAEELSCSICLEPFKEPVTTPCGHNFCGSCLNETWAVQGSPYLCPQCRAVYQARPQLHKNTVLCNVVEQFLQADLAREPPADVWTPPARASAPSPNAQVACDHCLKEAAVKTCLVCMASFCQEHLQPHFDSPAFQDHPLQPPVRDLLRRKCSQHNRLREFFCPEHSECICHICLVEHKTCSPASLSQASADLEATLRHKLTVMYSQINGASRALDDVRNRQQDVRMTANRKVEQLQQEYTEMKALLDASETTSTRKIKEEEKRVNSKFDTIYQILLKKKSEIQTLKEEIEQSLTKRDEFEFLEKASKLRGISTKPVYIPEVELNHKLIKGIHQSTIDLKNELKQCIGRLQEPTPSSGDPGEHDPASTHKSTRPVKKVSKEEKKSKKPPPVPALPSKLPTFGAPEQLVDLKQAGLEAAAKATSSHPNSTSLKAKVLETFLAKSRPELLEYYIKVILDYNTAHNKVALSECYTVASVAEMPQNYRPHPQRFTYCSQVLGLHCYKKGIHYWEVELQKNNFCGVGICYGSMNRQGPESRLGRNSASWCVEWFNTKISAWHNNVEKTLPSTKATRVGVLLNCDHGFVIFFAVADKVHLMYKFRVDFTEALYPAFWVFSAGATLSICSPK

No constants are given. Whether binding was seen depends on the method and setting. Binding seen in cells or lysates may run through a third protein. A result given as binding can be weak or reduced; the word gives no strength.

As to endogenous RTN3 (from UniProt O95197-3), the binding entry is reported as “binds”.
